This is an account of results in the supplement of paper PMC10849652.

The chains behind the UniProt entries cited, without tags or fusion partners. Where a name states a change or a piece, a line headed by the entry shows the natural chain unless it says otherwise.
UniProt P11309, whole entry, looked up: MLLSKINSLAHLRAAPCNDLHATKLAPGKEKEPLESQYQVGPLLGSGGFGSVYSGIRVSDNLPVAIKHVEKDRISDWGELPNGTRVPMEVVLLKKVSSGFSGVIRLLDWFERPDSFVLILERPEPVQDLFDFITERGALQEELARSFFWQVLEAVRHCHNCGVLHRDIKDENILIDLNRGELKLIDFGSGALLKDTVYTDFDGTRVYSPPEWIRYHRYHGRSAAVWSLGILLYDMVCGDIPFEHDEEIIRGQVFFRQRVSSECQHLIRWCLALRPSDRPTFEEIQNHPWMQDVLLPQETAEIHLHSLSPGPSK
UniProt Q53GA4: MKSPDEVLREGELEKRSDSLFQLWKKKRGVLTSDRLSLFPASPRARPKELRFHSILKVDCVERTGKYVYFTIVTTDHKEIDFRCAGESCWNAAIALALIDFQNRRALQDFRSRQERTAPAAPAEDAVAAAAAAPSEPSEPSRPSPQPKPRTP
UniProt Q6P5Z2: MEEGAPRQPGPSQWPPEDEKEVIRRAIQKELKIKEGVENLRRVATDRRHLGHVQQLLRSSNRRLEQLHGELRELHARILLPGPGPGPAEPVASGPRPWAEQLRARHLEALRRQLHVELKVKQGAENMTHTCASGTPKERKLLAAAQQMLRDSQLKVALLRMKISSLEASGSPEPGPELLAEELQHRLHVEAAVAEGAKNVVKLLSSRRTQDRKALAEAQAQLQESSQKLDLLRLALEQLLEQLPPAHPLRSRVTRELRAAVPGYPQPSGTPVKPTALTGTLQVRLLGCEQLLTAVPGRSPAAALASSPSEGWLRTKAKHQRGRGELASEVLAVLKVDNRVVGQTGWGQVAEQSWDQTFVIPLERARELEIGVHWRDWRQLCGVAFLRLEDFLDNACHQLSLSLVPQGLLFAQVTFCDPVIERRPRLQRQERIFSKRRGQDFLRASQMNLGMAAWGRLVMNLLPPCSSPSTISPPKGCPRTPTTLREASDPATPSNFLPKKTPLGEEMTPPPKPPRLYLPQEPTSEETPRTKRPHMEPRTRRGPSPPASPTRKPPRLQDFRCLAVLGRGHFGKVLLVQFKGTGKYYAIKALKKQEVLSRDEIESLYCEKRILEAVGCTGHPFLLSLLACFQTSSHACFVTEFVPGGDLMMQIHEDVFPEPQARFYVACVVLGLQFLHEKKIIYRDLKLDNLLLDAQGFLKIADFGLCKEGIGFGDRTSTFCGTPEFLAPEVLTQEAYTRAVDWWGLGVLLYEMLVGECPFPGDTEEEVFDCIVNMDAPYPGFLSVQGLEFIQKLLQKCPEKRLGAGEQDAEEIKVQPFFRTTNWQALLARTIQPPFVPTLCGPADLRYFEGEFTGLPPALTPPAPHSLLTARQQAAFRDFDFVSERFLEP
UniProt Q16816: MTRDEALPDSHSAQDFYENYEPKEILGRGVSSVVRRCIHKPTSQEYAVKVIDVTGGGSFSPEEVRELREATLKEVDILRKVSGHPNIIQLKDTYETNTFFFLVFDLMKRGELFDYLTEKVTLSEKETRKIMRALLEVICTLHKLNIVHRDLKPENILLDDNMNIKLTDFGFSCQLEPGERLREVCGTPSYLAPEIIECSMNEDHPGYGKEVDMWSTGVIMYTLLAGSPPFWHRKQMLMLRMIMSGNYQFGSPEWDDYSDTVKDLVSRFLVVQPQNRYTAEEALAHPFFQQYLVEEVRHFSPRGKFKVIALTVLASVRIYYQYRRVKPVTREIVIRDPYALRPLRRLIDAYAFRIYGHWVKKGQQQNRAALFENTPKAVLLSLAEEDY
UniProt Q9UPP1: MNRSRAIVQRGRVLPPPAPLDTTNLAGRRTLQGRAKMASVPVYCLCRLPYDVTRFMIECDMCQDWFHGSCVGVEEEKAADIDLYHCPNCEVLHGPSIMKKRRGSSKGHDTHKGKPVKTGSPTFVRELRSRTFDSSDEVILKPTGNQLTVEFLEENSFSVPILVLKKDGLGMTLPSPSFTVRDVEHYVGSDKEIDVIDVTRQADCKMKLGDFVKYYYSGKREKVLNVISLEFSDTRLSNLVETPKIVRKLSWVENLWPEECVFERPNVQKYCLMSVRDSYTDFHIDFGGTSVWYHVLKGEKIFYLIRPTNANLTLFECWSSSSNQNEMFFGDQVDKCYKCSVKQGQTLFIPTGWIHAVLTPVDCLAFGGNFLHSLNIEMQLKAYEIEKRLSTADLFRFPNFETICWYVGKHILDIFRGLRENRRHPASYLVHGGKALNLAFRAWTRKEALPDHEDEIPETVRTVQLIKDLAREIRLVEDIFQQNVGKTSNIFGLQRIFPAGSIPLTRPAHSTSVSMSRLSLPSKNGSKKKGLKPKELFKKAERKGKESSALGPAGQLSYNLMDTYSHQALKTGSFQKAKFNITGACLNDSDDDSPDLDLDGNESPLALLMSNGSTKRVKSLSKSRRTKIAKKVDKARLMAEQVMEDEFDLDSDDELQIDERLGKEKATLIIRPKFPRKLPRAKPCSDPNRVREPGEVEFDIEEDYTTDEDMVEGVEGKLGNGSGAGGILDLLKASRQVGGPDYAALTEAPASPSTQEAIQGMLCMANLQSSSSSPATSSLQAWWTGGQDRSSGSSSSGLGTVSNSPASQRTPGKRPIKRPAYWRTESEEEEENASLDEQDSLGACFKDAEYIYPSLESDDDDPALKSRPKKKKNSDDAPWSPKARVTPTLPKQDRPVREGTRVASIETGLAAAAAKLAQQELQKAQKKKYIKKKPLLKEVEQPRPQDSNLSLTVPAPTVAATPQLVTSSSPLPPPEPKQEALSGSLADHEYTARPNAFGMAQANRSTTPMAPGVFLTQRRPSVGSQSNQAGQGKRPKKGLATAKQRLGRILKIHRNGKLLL
UniProt O75167: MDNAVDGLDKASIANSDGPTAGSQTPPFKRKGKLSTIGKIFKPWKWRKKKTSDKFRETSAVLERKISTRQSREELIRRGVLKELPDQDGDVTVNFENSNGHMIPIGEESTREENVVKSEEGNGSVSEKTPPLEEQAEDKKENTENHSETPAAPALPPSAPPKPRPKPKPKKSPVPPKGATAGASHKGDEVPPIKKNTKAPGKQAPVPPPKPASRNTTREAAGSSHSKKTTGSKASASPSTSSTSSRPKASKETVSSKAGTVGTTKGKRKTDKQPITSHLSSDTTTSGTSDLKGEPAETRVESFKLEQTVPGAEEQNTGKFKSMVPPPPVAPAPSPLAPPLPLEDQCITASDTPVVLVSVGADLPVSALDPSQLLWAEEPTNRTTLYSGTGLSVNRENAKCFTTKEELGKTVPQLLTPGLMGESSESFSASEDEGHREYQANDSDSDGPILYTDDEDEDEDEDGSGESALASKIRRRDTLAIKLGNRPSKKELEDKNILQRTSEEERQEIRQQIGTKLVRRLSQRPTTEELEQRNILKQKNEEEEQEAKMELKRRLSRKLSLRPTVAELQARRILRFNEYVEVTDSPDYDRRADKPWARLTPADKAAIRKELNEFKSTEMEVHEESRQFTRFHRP
UniProt Q8IXK0: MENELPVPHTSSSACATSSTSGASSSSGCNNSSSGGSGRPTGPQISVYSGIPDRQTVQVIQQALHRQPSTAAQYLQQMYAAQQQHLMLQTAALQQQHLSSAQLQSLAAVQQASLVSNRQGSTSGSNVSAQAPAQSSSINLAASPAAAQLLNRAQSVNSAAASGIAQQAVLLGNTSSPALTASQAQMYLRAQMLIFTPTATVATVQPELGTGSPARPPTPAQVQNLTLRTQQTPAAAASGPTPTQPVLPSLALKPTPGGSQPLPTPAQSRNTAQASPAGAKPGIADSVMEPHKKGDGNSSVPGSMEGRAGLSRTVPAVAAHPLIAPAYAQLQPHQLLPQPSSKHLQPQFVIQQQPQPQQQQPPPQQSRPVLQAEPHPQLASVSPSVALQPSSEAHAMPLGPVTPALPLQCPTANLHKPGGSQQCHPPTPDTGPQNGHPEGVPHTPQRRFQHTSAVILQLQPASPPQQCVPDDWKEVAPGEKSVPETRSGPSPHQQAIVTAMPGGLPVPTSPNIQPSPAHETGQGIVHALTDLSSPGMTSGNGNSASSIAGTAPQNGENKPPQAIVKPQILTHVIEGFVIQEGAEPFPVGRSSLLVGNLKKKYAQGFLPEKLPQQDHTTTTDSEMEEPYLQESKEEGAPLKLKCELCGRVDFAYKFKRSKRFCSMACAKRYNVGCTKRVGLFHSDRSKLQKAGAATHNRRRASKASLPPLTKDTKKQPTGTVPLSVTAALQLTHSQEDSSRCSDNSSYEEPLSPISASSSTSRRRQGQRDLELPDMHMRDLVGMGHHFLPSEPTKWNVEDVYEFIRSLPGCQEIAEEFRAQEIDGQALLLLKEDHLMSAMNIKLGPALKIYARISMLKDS
UniProt Q14442: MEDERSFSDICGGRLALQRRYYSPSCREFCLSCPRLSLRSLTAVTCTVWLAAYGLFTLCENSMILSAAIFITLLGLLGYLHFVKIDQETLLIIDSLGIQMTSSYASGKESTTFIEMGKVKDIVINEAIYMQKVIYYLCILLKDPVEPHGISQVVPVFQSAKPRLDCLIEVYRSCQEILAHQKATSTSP
UniProt Q9H490: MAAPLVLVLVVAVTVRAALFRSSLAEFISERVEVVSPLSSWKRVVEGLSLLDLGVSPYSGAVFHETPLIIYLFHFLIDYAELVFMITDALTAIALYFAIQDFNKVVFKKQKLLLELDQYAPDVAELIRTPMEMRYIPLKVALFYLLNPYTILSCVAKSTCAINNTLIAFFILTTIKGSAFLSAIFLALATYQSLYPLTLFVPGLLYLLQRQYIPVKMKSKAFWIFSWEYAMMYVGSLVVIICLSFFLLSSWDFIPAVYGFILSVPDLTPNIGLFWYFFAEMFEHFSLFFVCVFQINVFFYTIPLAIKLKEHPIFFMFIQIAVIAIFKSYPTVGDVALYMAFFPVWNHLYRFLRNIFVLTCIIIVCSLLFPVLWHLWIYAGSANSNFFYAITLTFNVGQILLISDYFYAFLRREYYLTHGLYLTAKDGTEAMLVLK
UniProt O75928, whole entry, looked up: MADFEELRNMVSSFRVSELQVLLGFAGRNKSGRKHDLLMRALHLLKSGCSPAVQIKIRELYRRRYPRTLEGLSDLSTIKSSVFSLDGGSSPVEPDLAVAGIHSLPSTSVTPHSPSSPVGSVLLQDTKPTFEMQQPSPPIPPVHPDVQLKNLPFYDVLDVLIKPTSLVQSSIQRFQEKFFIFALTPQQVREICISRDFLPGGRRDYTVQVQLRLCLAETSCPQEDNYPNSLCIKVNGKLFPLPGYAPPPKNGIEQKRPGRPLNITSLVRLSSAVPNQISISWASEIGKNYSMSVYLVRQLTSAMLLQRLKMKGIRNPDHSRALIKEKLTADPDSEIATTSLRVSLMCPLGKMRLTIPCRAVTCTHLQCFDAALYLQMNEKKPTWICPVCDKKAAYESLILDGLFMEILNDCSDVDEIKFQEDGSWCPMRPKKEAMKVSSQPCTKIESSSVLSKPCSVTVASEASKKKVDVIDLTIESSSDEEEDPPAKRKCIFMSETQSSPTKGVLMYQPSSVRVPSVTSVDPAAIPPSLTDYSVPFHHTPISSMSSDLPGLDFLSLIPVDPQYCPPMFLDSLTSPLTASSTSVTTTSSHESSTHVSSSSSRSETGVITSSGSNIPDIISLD

Common to all, as to assay: log2 fold change, soluble protein after heating vs DMSO (PISA); higher = thermal stabilisation; K562 lysate, 10 uM; active = over 0.2 and 3.5 SD of the protein, either way, in both replicates (recomputed)
Compound in one assay: CCCS(=O)(=O)Nc1ccc(F)c(C(=O)c2c[nH]c3ncc(-c4ccc(Cl)cc4)cc23)c1F [vemurafenib]
Summed up: (§1)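 Values give the log-two fold change in thermal stability against solvent controls, from duplicates. Crude K562 extract at 1 mg/mL protein, made by dounce homogenisation in PBS pH 7.4 with 1 mM MgCl2, was treated with 10 μM compound for 30 min. After 3 min heating across 48°C-58°C, aliquots were pooled, adjusted to 0.5% NP-40 at 4°C and centrifuged at 21,000xg for 90 min. The supernatant was measured by TMTpro 16plex LC-MS/MS with channel sums equalised.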

Compound in a further assay: CCN(CCCOc1ccc2c(Nc3cc(CC(=O)Nc4cccc(F)c4)[nH]n3)ncnc2c1)CCOP(=O)(O)O [barasertib]
Summed up:
as §1

Compound in assay [1]: CC[C@@H]1C(=O)N(C)c2cnc(Nc3ccc(C(=O)NC4CCN(C)CC4)cc3OC)nc2N1C1CCCC1
A digest of the protocol:
as §1

Compound in assay [2]: CCn1c(C(=O)N(C2CC2)C2CC2)cc2c3c(ncn3C)c(Nc3cc(C)n(C)n3)nc21
Summed up:
as §1

Compound in assay [3]: CCn1cc(-c2ccnc3[nH]c(-c4cccc(CN(C)C)c4)cc23)c(-c2ccc(NC(=O)N(C)C)cc2)n1
Summed up:
as §1

Compound in assay [4]: CN1CCC(CNc2ccc3ncc(-c4cccc(OC(F)(F)F)c4)n3n2)CC1
A digest of the protocol:
as §1

Compound in another assay: CN1CCN(CCOc2cc(OC3CCOCC3)c3c(Nc4c(Cl)ccc5c4OCO5)ncnc3c2)CC1 [saracatinib]
A digest of the protocol:
as §1

Compound in a further assay: CN1CCN(c2nc(C3=C(c4c[nH]c5ccccc45)C(=O)NC3=O)c3ccccc3n2)CC1 [sotrastaurin]
A digest of the protocol: as §1

Compound in assay [5]: CCCS(=O)(=O)Nc1ccc(F)c(C(=O)c2c[nH]c3ncc(Cl)cc23)c1F
Summed up:
as §1

Compound in a further assay: CC[C@@H]1C(=O)N(C)c2cnc(Nc3ccc(C(=O)N[C@H]4CC[C@H](N5CCN(CC6CC6)CC5)CC4)cc3OC)nc2N1C(C)C [volasertib]
Summed up:
as §1

Some of the results follow.

For PIM1 isoform 2 (UniProt P11309), the log2 fold change is inactive: -0.061 in the assay with vemurafenib; inactive: 0.139 with barasertib; inactive: 0.002 in assay [1]; inactive: 0.073 in [2]; inactive: -0.068 in assay [3]; active: 1.46 in assay [4]. Besides, the log2 fold change with saracatinib is inactive: 0; in the assay with sotrastaurin, active: 0.593.
For the target PHLDA2 (UniProt Q53GA4), the log2 fold change with vemurafenib is inactive: -0.252; in assay [2], inactive: 0.047; with saracatinib, inactive: 0.078; with sotrastaurin it was inactive: 0.019.
With PKN3 (UniProt Q6P5Z2), the log2 fold change with vemurafenib was inactive: -0.072; in the assay with barasertib, inactive: -0.031; in assay [1], inactive: -0.065; in [2], inactive: -0.056; in assay [3] it was inactive: 0.003; in assay [4], inactive: -0.065. The values for the log2 fold change in the assay with saracatinib and with sotrastaurin were inactive: 0.037 and inactive: 0.136, respectively.
Consider PHKG1 isoform 2 (UniProt Q16816), for which the log2 fold change was inactive: -0.197 with vemurafenib; inactive: -0.037 in assay [5]; inactive: -0.062 in assay [1]; inactive: 0.033 with volasertib; inactive: 0.054 in [2]; active: -0.867 in assay [3]. In addition, the figures for the log2 fold change (in assay [4]; with saracatinib; in the assay with sotrastaurin) were inactive: 0.64, inactive: 0.177 and inactive: -0.269, respectively.
Turning to PHF8 (UniProt Q9UPP1), the log2 fold change is inactive: 0.125 with vemurafenib; inactive: 0.191 in assay [1]; inactive: -0.11 in [2]; inactive: 0.245 in assay [3]; inactive: 0.064 in [4]; inactive: 0.117 with sotrastaurin.
On to PHACTR2 isoform 4 (UniProt O75167), for which the log2 fold change is inactive: -0.175 in assay [5]; inactive: -0.038 in the assay with barasertib; inactive: 0.182 in assay [1]; inactive: -0.046 with volasertib; inactive: -0.001 in [2]; inactive: 0.06 in [3]. Besides, the log2 fold change in assay [4] is inactive: -0.042; in the assay with saracatinib, inactive: 0.107; with sotrastaurin, inactive: 0.059.
Take PHC2 isoform 5 (UniProt Q8IXK0): the log2 fold change with vemurafenib was inactive: -0.239; in assay [1], inactive: -0.07; in [3], inactive: -0.1; in assay [4], inactive: 0.012; with sotrastaurin, inactive: -0.019.
With PIGH (UniProt Q14442), the log2 fold change with vemurafenib was inactive: -0.02; in assay [5], inactive: 0.052; with barasertib it was inactive: -0.038; with volasertib, inactive: -0.021; in assay [3], inactive: -0.015; in assay [4], inactive: 0.036. In addition, the log2 fold change in the assay with sotrastaurin is inactive: 0.054.
Consider PIGU (UniProt Q9H490), for which the log2 fold change with vemurafenib was inactive: 0.043; in assay [5], inactive: 0.026; with barasertib, inactive: 0.057; in the assay with volasertib it was inactive: -0.001; in assay [2], inactive: 0.016; in [3], inactive: -0.066. For the same target, the log2 fold change in assay [4] is inactive: -0.054; with saracatinib it was inactive: 0.028; with sotrastaurin it was inactive: 0.098.
For PIAS2 (UniProt O75928), the log2 fold change with vemurafenib is inactive: -0.263; in [1], inactive: -0.026; in assay [2], inactive: 0.003; with saracatinib, inactive: 0.044; in the assay with sotrastaurin, inactive: -0.033.
